# Earlier results in patent US9241922B2, “Pharmaceutical solution of taxanes comprising pH regulator and preparation method thereof” (Tasly Holding Group Co., Ltd., priority 2009, dated 2016).
# Some of these results come from one statement about several compounds together.
# Settings: background statement
structure (smiles),measurement,value
CC(=O)O[C@@]12CO[C@@H]1C[C@H](O)[C@@]1(C)C(=O)[C@H](O)C3=C(C)[C@@H](OC(=O)[C@H](O)[C@@H](NC(=O)OC(C)(C)C)c4ccccc4)C[C@@](O)([C@@H](OC(=O)c4ccccc4)[C@H]21)C3(C)C [docetaxel],absorbed after oral administration,2%-4%
